Values quoted from earlier work, collected in patent US4954510A, “Antiviral agent containing lactam compound” (Meiji Seika Kaisha, Ltd., priority 1987, dated 1990).
At least one compound was matched to its structure with a doubt left.

Columns and labels:
AIDS patients = conditions: clinical, in words; cited from earlier work
[1] = tested on: host cells in which the HIV provirus has already been incorporated; conditions: in words; cited from earlier work

Question: Which results are given for Cc1cn([C@H]2C[C@H](N=[N+]=[N-])[C@@H](CO)O2)c(=O)[nH]c1=O [azidothymidine (AZT), azidothymidine]?
Answer: life span of AIDS patients (AIDS patients): clinically demonstrated to increase the life span of AIDS patients; effect on host cells with incorporated HIV provirus [1]: no effect on the host cells in which the HIV provirus has already been incorporated
